Test results from publication PMC6820788, “Structural insights of human mitofusin-2 into mitochondrial fusion and CMT2A onset” (Nature Communications, 2019).
Numbering of substitutions follows the chain as printed. Names and notes keep the numbering of the source. These are yes or no findings as the source states them, for the method shown. Blank lines part the entries; values can stand above or below the binder they belong to.

What was measured:
[1] = biological target: MFN2IM (modified human MFN2 construct with deletions of residues 1–21 and 401–705) (human) (UniProt O95140); assay: condition: only nucleotide-free or loaded with GDP, GTPγS or GMPPNP (50 μM protein); SEC-RALS; analytical gel filtration coupled to RALS; 50 μM protein nucleotide-free or with 500 μM GDP, GTPγS or GMPPNP; 20 mM HEPES pH 7.5, 150 mM KCl, 5 mM MgCl2, 1 mM DTT; both purified
[2] = biological target: MFN2IM(V273D) (human) (UniProt O95140); assay: SEC-RALS; analytical gel filtration (Superdex 200 10/300) coupled to right-angle light scattering; 50 μM protein incubated with 500 μM GTP or GDP∙BeF3− for 2 h at room temperature; 20 mM HEPES pH 7.5, 150 mM KCl, 5 mM MgCl2, 1 mM DTT; both purified

binding [1]: no binding
B1: MFN2IM (modified human MFN2 construct with deletions of residues 1–21 and 401–705) (domain or fragment, UniProt O95140 22-757, looked up)
chain: AEVNASPLKHFVTAKKKINGIFEQLGAYIQESATFLEDTYRNAELDPVTTEEQVLDVKGYLSKVRGISEVLARRHMKVAFFGRTSNGKSTVINAMLWDKVLPSGIGHTTNCFLRVEGTDGHEAFLLTEGSEEKRSAKTVNQLAHALHQDKQLHAGSLVSVMWPNSKCPLLKDDLVLMDSPGIDVTTELDSWIDKFCLDADVFVLVANSESTLMQTEKHFFHKVSERLSRPNIFILNNRWDASASEPEYMEEVRRQHMERCTSFLVDELGVVDRSQAGDRIFFVSAKEVLNARIQKAQGMPEGGGALAEGFQVRMFEFQNFERRFEECISQSAVKTKFEQHTVRAKQIAEAVRLIMDSLHMAAREQQVYCEEMREERQDRTRENLEQEIAAMNKKIEVLDSLQSKAKLLRNKAGWLDSELNMFTHQYLQPSR
notes: human mitofusin-2 (MFN2) with residues 1-21 and 401-705 deleted (MFN2IM); Theoretical molecular mass 52.6 kDa; also called truncated human MFN2; wild-type MFN2IM; source: E. coli Rosetta (DE3), purified (Ni-NTA, His6-tag removed with PreScission protease, second Ni-NTA, gel filtration); not shown: His6, N-terminal, cleaved

binding [2]: no binding (tested: 50 μM protein)
B2: MFN2IM(V273D) (domain or fragment, UniProt O95140)
chain: B1 chain with V252D
